In PubChem BioAssay AID493014 (National Center for Advancing Translational Sciences (NCATS), 2011):
Out of some 340,000 compounds screened, about 170 (0.05%) were called active. This list was built around the results that the source calls inconclusive (neither active nor inactive); the mix of calls is not that of the screen. Calls come from the whole dose curve; as a rule, active = well fitted inhibition curve with a large enough effect in the signal ratio, with a control signal flat (not every such curve was filed as active); inconclusive = small, poorly fitted or top-dose-only effect, or effect the other way, or a change in a side signal; inactive = flat fitted curve, though single readings scatter; the % refers to the signal ratio. Where the call is inconclusive, the potency comes from a doubtful curve fit.

Assay: qHTS Assay to Find Inhibitors of Chronic Active B-Cell Receptor Signaling;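 for activity change, negative = inhibition: plate controls were basal doxycycline-induced cells for no effect and cells given 10 µM MG132 for full effect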
Details: ABC-DLBCL IkBa-CBG/CBR reporter, luminescence ratio (green luciferase fused to IkBa over red control in TMD8 lymphoma cells), 4 h; activity change, negative = inhibition: at 46.1 µM (top of the series) unless noted
In short: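 Concentration-response series (up to 46 uM) were applied to TMD8 dual-reporter cells for 4 h at 37C with doxycycline. Green/red ratio, after filter-overlap correction, defined %Activity; red signal alone was normalised to basal cells and zero luminescence.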
Potency is the fitted concentration of half-maximal effect.

Structure (SMILES)	activity change, negative = inhibition	Potency
COCCCNC(=O)c1ccc(-n2nc(C(F)(F)F)cc2-c2cccs2)cc1	inconclusive: 23.4%	–
O=C(CC(Cc1ccccc1)C(=O)O)NCCc1ccc2c(c1)OCO2 (configuration not stated)	inconclusive: 4.8%	–
Cc1ccc(C(=O)Nc2ccc(N3CCN(C)CC3)cc2)c(Cl)c1	inactive: 3.2%	–
Cc1ccccc1NC(=O)CON=C(N)c1ccccc1	–	inconclusive: 23.1 µM [falling, partial curve]
NC(=O)c1c(NC(=O)c2cnccn2)sc2c1CCCC2	inactive: 4.49%	–
CCn1c(SCC(=O)NC2CC2)nnc1C(C)Oc1ccccc1 (configuration not stated)	inactive: -3.46%	–
CC(C)(C)c1cc(OC(=O)C2CCCC2)ccc1O	–	inconclusive: 11.2 µM [falling, partial curve]
COc1ccc(-c2c3c(=O)n(C)c(=O)n(C)c3cn2C2CCCCC2)cc1	–	inconclusive: 3.16 µM [falling, partial curve, poor fit]
COC(=O)c1ccccc1NC(=O)c1ccc(-c2ccc(Br)cc2)o1	–	inconclusive: 0.092 µM [falling, full curve, poor fit]
CC(=O)c1sc(NC(=O)CCCOc2ccc(Cl)cc2)nc1C	inconclusive: 15%	–
Cc1cc(C)cc(N2C(=O)C3CCCN3C2=S)c1 (configuration not stated)	inconclusive: 4.58%	–
Cc1ccc2nc(-c3sc4nc(C)ccc4c3N)[nH]c2c1	–	inconclusive: 0.116 µM [activator, full curve, poor fit]
Cc1ccc(CN(C(=O)COc2ccc(Br)cc2)C2CCS(=O)(=O)C2)o1 (configuration not stated)	–	inconclusive: 25.1 µM [falling, partial curve, poor fit]
Oc1ccc(NCc2ccccc2OCc2ccccc2F)cc1	–	inconclusive: 20 µM [falling, partial curve, poor fit]
O=C(O)c1ccc(N2CCCCC2)cc1	–	inconclusive: 7.31 µM [rising, partial curve, poor fit]
CCc1ccc(NC(=O)CSc2nc3ccccc3c(=O)n2CCNC(C)=O)cc1	inactive: -16.2%	–
CC(=O)Nc1ccc(NC(=O)C/C(C)=N/NC(N)=S)cc1	–	inconclusive: 35.5 µM [cytotoxic, single point]
CCOc1ccc(CCNC(=O)COC(=O)COc2ccc(C(C)=O)cc2)cc1OCC	inactive: -3.68%	–
O=C(O)c1ccc(-n2c(O)c(C=C3N=c4ccccc4=N3)sc2=S)cc1	–	inconclusive: 12.6 µM [falling, partial curve]
Cc1cc(C(F)(F)F)nn1Cc1ccc(C(=O)NCc2ccco2)o1	inconclusive: -10.3%	–
CC(=O)Nc1ccccc1NC(=O)CN(C)S(=O)(=O)c1ccc(C)cc1	inconclusive: 8.86%	–
COc1ccc(NC(=O)CN(C)C(=O)CCC2CCCC2)cc1	inactive: -2.78%	–
CC(C)n1cc(/C=C2\NC(=O)N(c3cccc(Cl)c3)C2=O)c2ccccc21	inconclusive: 1.23%	–
CC(C)(C)N1C(=O)Cc2c1nc(N)c1c(N)nc(N3CCCCC3CO)c(C#N)c21 (configuration not stated)	inactive: -11.6%	–
O=C(CCSc1ccccc1)Nc1ncccn1	inactive: 0.103%	–
Cc1nc2ccccn2c1C(=O)CSc1cccc(Cl)c1	inconclusive: -20.7%	–

Structure (SMILES)	activity change, negative = inhibition	Potency
O=C(Nc1ccc(SC(F)(F)F)cc1)c1ccccn1	–	inconclusive: 22.4 µM [falling, single point]
Cn1cc(/C=C/C(=O)c2ccccc2)c2ccccc21	–	inconclusive: 5.62 µM [falling, partial curve]
O=C(c1cc(-c2ccco2)on1)N1CCN(C(c2ccccc2)c2ccccc2)CC1	inactive: 4.08%	–
CC(=O)c1ccc(N2CCN(C(=O)c3cn(Cc4ccccc4)nc3-c3cccnc3)CC2)c(F)c1	inactive: -11.3%	–
COc1ccc2nc3sc(C(=O)N4CCN(C)CC4)cc3cc2c1	inconclusive: 12.1%	–
CCOC(=O)c1ccc(NC(=S)N2CCCC(C(=O)OCC)C2)cc1 (configuration not stated)	inconclusive: -16%	–
COc1cccc(CN(C)C(=O)CCN(c2ccccc2)S(=O)(=O)c2ccc(C)cc2)c1OC	inconclusive: 14.3%	–
Nc1ccc(Cc2nc3c(ccc4ccccc43)[nH]2)cc1	–	inconclusive: 8.91 µM [falling, partial curve, poor fit]
CC1Cc2ccccc2N1C(=O)COC(=O)C1(c2ccccc2F)CCCC1 (configuration not stated)	–	inconclusive: 4.61 µM [rising, single point]
Cn1c(CCN2CCCCC2)nc2cc([N+](=O)[O-])ccc21	–	inconclusive: 15.8 µM [falling, single point]
CCS(=O)(=O)N1CCN(S(=O)(=O)c2ccc3c(c2)OCCO3)CC1	inconclusive: -12.1%	–
CCCCC(=O)Nc1c(C)cc(C)cc1Cl	inconclusive: -1.76%	–
O=C(O)CSc1nnc(-c2ccncc2)n1Cc1ccccc1	inconclusive: -0.879%	–
CC(C)(C)C(=O)N=C1SC2CS(=O)(=O)CC2N1c1ccc2c(c1)OCO2 (configuration not stated)	inconclusive: 4.92%	–
O=C(CSc1nc2ccccc2s1)N/N=C/c1ccco1	inconclusive: 0.931%	–
CS(=O)(=O)NCCCCCCNS(C)(=O)=O	–	inconclusive: 35.5 µM [falling, single point]
Cc1cc2c(s1)c1c(C)nn(Cc3ccccc3F)c(=O)c1n2C	inconclusive: 0.93%	–
CCn1c2ccccc2c2nnc(SCC(=O)NC3CCS(=O)(=O)C3)nc21 (configuration not stated)	inconclusive: 3.29%	–
N#C/C(=C\c1cccc(OC(=O)c2cccs2)c1)C(N)=O	inconclusive: -2.21%	–
COCCOC1CCN(C(=O)C2CCC(=O)N(CCc3ccc(OC)cc3)C2)CC1 (configuration not stated)	inconclusive: 3.07%	–
COC(=O)CSc1nc(C)cc(C)c1C#N	inconclusive: 23.5%	–
CCOC(=O)c1cc(NC(=O)c2ccoc2C)cc(C(=O)OCC)c1	inconclusive: 1.66%	–
O=C(/C=C/c1cccs1)Nc1ccc(N2CCOCC2)c(S(=O)(=O)Nc2ccccc2Cl)c1	inconclusive: -11.8%	–
CCOC(=O)c1ccccc1NC(=O)CSc1nc(=O)[nH]c2c1CCC2	inconclusive: -0.412%	–
Cc1c(/C=N/NC(=O)c2sc3ccccc3c2Cl)cnn1C	inconclusive: -7.77%	–
COc1cc(NC(=O)CCCC(=O)OCC(F)(F)C(F)F)nc(OC)n1	inactive: 10.8%	–

An excerpt from above in order of length of the SMILES, largest number first:
Structure (SMILES)	activity change, negative = inhibition	Potency
CC(=O)c1ccc(N2CCN(C(=O)c3cn(Cc4ccccc4)nc3-c3cccnc3)CC2)c(F)c1	inactive: -11.3%	–
O=C(c1cc(-c2ccco2)on1)N1CCN(C(c2ccccc2)c2ccccc2)CC1	inactive: 4.08%	–
COCCOC1CCN(C(=O)C2CCC(=O)N(CCc3ccc(OC)cc3)C2)CC1 (configuration not stated)	inconclusive: 3.07%	–
CC1Cc2ccccc2N1C(=O)COC(=O)C1(c2ccccc2F)CCCC1 (configuration not stated)	–	inconclusive: 4.61 µM [rising, single point]
Cc1cc2c(s1)c1c(C)nn(Cc3ccccc3F)c(=O)c1n2C	inconclusive: 0.93%	–
Cn1c(CCN2CCCCC2)nc2cc([N+](=O)[O-])ccc21	–	inconclusive: 15.8 µM [falling, single point]
Nc1ccc(Cc2nc3c(ccc4ccccc43)[nH]2)cc1	–	inconclusive: 8.91 µM [falling, partial curve, poor fit]
Cn1cc(/C=C/C(=O)c2ccccc2)c2ccccc21	–	inconclusive: 5.62 µM [falling, partial curve]
COC(=O)CSc1nc(C)cc(C)c1C#N	inconclusive: 23.5%	–
